Data reported in patent publication US20190316085A1, “Methods Of T-Lymphocyte Expansion” (Cambridge Enterprise Limited, priority 2015, published 2019).
At least one compound was matched to its structure with a doubt left.

Experiments:
[1] = tested on: CD8^+ T-lymphocytes; test: Flow cytometry of CD44 and CD62L surface expression; type: cell-based, mouse; conditions: 0.5 mM, with IL-2; antigen specific (OT-I) and polyclonal CD8+ T-lymphocytes
From the text: Data are representative of n=4 individual mice.
Data are representative of 3 mice per genotype.
Data are representative of 2 mice per genotype.
Data are representative of n=3 individual mice.
Cells were stained and acquired on a Fortessa (BD Biosciences). […] For staining of nuclear-located marker Eomes, the Transcription Factor Staining Buffer Set (eBioscience) was used, according to the manufacturer's instructions. For staining of intracellular cytokines, OT-I cells were re-stimulated with […] peptide for 4 h with GolgiStop solution (BD). For ^1H-NMR experiments, CD8^+ T-lymphocytes were sorted from total splenocytes by immunostaining with anti-mouse CD8-AF647 (Biolegend) on a MoFlo (Beckman Coulter). Cells were then activated and cultured as described above.

[2] = tested on: OT-I CD8^+CD45.1^+ T-lymphocytes; test: In vivo memory recall experiment (adoptive transfer, vaccination); set-up: species or system mouse; conditions: 0.5 mM, 7 days with IL-2 (FIGS. 13, 16, 17)
Method: FIGS. 13B and 13C show representative flow cytometry plots of (B) CD8^+CD45.1^+ (C) or Kb/SIINFEKL Pentamer^+CD45.1^+ T-lymphocytes, in the spleens of vaccinated litter mate CD45.2 mice, 37 days after adoptive transfer of SIINFEKL-activated OT-I CD8^+CD45.1^+ T-lymphocytes, expanded with 0.5 mM S-2HG-octyl ester, 0.5 mM R-2HG-octyl ester or vehicle in the presence of IL-2 for 7 days. FIGS. 13D-F show (13D) the number of recovered CD45.1^+CD8^+ T-lymphocytes per spleen and (13E) % CD45.1^+ cells of the total CD8^+ population in each spleen or (13F) number of recovered Kb/SIINFEKL Pentamer^+CD45.1^+ T-lymphocytes per spleen 7 days after vaccination (37 days after the CD8+ T-cells were transferred into the mice). n=6 mice per group and error bars denote the s.e.m.
Total splenocytes from OT-1 CD45.1^+ mice were activated with 1000 nM SIINFEKL peptide in the presence of IL-2 and vehicle, 0.5 mM S-2HG-octyl ester or 0.5 mM R-2HG-octyl ester for 7 days. 1 million CD45^+CD8^+ cells were then injected intravenously into C57/B6 wild type CD45.2^+ host mice. 30 days later, host mice were vaccinated i.p. with SIINFEKL-loaded dendritic cells. 7 days later, spleens were harvested from host mice and the presence of CD45.1^+CD8^+ and Kb/SIINFEKL Pentamer+cells was determined by flow cytometry. Absolute numbers of cells were determined with the use of counting beads (CountBright, Life Technologies). […]

For `COC(=O)/C=C/C(=O)O` [monomethylfumarate], the “formation of a CD62L^high CD44^high population” value [1] was “induce the formation” and the “formation of memory cells after in vitro treatment of CD8+ T-cells” value [2] was “induces the formation”.
